In patent publication US8168667B2 (Galapagos NV, priority 2006, dated 2012):
The match of structure and compound is tentative.

Sequences of proteins named here, by UniProt entry; tags and fusion partners are left off.
UniProt P10275, whole entry: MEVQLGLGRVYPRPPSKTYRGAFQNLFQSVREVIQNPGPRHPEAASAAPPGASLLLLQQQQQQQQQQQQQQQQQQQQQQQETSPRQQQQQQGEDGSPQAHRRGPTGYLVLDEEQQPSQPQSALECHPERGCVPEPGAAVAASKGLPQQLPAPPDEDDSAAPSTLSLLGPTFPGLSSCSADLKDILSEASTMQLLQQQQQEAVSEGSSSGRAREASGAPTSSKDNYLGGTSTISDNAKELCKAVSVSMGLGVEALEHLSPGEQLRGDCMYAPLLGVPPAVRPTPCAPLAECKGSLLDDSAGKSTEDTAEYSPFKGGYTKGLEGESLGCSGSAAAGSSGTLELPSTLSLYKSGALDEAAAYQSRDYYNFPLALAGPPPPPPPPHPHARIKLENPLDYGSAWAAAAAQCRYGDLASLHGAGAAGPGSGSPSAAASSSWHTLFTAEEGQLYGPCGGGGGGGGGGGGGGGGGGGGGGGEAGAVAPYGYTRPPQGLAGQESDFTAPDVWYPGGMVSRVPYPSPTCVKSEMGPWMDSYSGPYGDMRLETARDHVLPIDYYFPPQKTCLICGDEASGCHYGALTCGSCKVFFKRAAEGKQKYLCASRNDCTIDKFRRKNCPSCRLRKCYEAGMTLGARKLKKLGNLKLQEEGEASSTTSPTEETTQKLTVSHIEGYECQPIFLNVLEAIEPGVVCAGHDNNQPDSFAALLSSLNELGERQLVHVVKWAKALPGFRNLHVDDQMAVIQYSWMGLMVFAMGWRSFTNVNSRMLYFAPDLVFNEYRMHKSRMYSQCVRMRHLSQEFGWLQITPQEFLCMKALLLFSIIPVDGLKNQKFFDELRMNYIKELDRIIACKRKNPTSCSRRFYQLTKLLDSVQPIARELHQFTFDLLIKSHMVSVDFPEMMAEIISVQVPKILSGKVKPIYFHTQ

Target: human androgen receptor (hAR) (Homo sapiens, UniProt P10275)
Experiment: Functional response test: hAR transactivation (luciferase reporter) in HALP2 cells
Format: cell-based

For `O=C1C(c2ccc(O)cc2)N(CCCCO)C(=O)N1c1ccc(F)c(Cl)c1` (centres unmarked), the “KSchild (nM) potency” value was 244.95 nM and the EC50 (read-out: EC50 (nM) Kd, agonism, HALP2 cells (HeLa, hAR + ARE-luciferase), 20 hours at 37° C.) was 245 nM.
